Data published in US11598778B2, “Method for diagnosis, prognosis and determination of treatment for cutaneous t-cell lymphoma” (UNIVERSITY OF PITTSBURGH—OF THE COMMONWEALTH SYSTEM OF …, priority 2013, dated 2023).
At least one compound was matched to its structure with a doubt left.

How the values were obtained:
Type in all cases: cell-based, human
[1] = system: PLS3; assay: qRT-PCR of PLS3 gene expression in cultured PBMCs after drug treatment; settings: isolated PBMCs, 48 hours of incubation with treatment; 4 μM romidepsin or 20 uM pralatrexate; romidepsin p<0.05; FIG. 5B
Experimental: (§1) Isolated PBMCs were cultured overnight and the next day divided into two treatment groups: 4 μM romidepsin and 20 uM pralatrexate. Each treatment was added 24 hours following culture initiation and was replaced along with fresh media 24 hours after initial treatment. After 48 hours of incubation with treatment, RNA was isolated from treated cells using RNAprotect and RNeasy (Qiagen, Valencia, Calif.) per manufacturer's instructions. For cDNA synthesis, total RNA (100 ng) was used for Reverse Transcription (RT) with Superscript II reverse transcriptase (Life Technologies, Gaithersburg, Md.) using oligo dT primers according to the recommendations of the manufacturer. 2 ul of the resulting cDNA was used for each PCR reaction. Quantitative reverse transcription PCR was performed using TaqMan PCR master mix (Applied Biosystems, Foster City, Calif.) together with TaqMan probes and primers (Applied Biosystems) using standard conditions. Expression of TOX, PLS3 and […] genes were measured in this way.

[2] = system: RUNX3; assay: qRT-PCR of RUNX3 gene expression in cultured PBMCs after drug treatment; settings: isolated PBMCs, 48 hours of incubation with treatment; 4 μM romidepsin or 20 uM pralatrexate; romidepsin p<0.05; FIG. 5C
Experimental: as §1

[3] = system: TOX; assay: qRT-PCR of TOX gene expression in cultured PBMCs after drug treatment; settings: isolated PBMCs, 48 hours of incubation with treatment; 4 μM romidepsin or 20 uM pralatrexate; romidepsin p<0.05; FIG. 5A
Experimental: as §1

SMILES: C/C=C1\NC(=O)[C@H]2CSSCC/C=C/[C@H](CC(=O)N[C@H](C(C)C)C(=O)N2)OC(=O)[C@H](C(C)C)NC1=O [romidepsin]
- gene expression of PLS3 [1]: decreased gene expression
- expression of RUNX3 [2]: increased expression
- gene expression of TOX [3]: decreased gene expression
